Values from PubChem BioAssay AID1259308 (NCATS, 2017)

Aim: 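Genes whose loss raises luciferase production in HEK293 cells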 (primary screen)
Cells: human HEK293 embryonic kidney cells stably expressing firefly luciferase (HEK-CMV-Luc2-Hygro)
Reagents: single siRNA against human genes, 0.8 pmol siRNA per well
Time to read-out: 72 h
Measured: 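Luciferase light (ONE-Glo) measured on one replicate plate set and viability (CellTiter-Glo) on the other, scaled to a negative control siRNA, with robust z-scores and luciferase per cell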
Direction: total luciferase, z-score and total luciferase, % of control: higher = more reporter protein produced; luciferase per cell, z-score: higher = more reporter output per viable cell; viable cells, % of control: higher = more viable cells
Hit rule: 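An siRNA counts as active if its total luciferase robust z-score exceeds 3; genes with two or more such siRNAs out of three were retested with fresh siRNAs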
Meaning of the calls: active = raised luciferase; inactive = no rise
The deposit covers about 59,000 reagents; this is an unselected part. About 1,510 of them (2.6%) count as active. 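Calls use total luciferase alone and ignore viability, so some active siRNAs may act by altering cell number.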 Entries without a mark were called inactive. Reagents against one gene are numbered here. Reagent sequences are not shown.

gene symbol	reagent no.	total luciferase, z-score	total luciferase, % of control	luciferase per cell, z-score	viable cells, % of control
MIER2	1	-0.524	71.5	0.561	68.9
MIER2	2	-0.103	79.8	0.16	85.5
MIER2	3	-0.207	77.8	-0.617	102
GLUD1	1	1.41	110	0.799	99.6
GLUD1	2	0.681	95.4	-0.264	114
GLUD1	3	-1.12	59.5	-0.994	86.4
TLR1	1	0.49	91.6	-0.602	120
TLR1	2	-0.431	73.3	-1.03	107
TLR1	3	0.47	91.2	0.857	81.4
RBPMS	1	-1.92	43.7	-1.6	74.4
RBPMS	2	-0.721	67.5	-0.467	85.4
RBPMS	3	2.14	125	1.09	105
SLC9D1	1	0.624	94.3	0.958	81.9
SLC9D1	2	0.0236	82.4	0.894	72.7
SLC9D1	3	-0.354	74.9	1.19	61.1
KHDRBS1	1	0.398	89.8	0.873	79.7
KHDRBS1	2	2.75	137	2.96	70.1
KHDRBS1	3	-0.816	65.7	-0.276	78.9
GLIPR1	1	0.249	86.8	-0.186	102
GLIPR1	2	-1.34	55.3	-1.4	89.3
GLIPR1	3	1.19	106	1.32	83.3
RNF139	1	0.439	90.6	0.0923	98.8
RNF139	2	-0.445	73	-0.691	97.9
RNF139	3	-0.78	66.4	0.0376	73.4
PTCHD4	1	0.0551	83	0.353	84.5
PTCHD4	2	0.0688	83.3	0.236	87.4
PTCHD4	3	-0.461	72.7	-0.345	89
TMEM80	1	2.91	140	2.13	89.2
TMEM80	2	0.434	90.5	0.208	95.8
TMEM80	3	-0.331	75.3	-0.614	98.9
USP22	1	1.56	113	1.47	85.7
USP22	2	-1.9	44.2	-0.742	60
USP22	3	-0.0719	80.5	-0.632	106

Targets listed so far whose target name begins with P or p:
gene symbol	reagent no.	total luciferase, z-score	total luciferase, % of control	luciferase per cell, z-score	viable cells, % of control
PTCHD4	1	0.0551	83	0.353	84.5
PTCHD4	2	0.0688	83.3	0.236	87.4
PTCHD4	3	-0.461	72.7	-0.345	89

Continued:
gene symbol	reagent no.	total luciferase, z-score	total luciferase, % of control	luciferase per cell, z-score	viable cells, % of control
TEX44	1	-1.51	51.8	-0.376	64
TEX44	2	-1.14	59.3	-0.882	83.6
TEX44	3	-2.5	32.1	-0.336	39.2
EIF4G1	1	-1.63	49.5	-1.08	73.5
EIF4G1	2	0.0751	83.4	0.154	89.5
EIF4G1	3	-0.509	71.8	-0.15	83.4
ZNF436	1	-0.943	63.1	0.103	68.6
ZNF436	2	-1.67	48.8	-1.68	84.9
ZNF436	3	0.746	96.7	0.693	90
PAIP1	1	1.18	105	1	90.4
PAIP1	2	-0.327	75.4	-0.885	106
PAIP1	3	0.205	86	0.488	84.5
RAI2	1	1.46	111	2.14	70.5
RAI2	2	0.544	92.7	0.277	96.3
RAI2	3	-0.265	76.6	0.346	78.2
NOL4L	1	4.15 (active)	164	3.2	79.2
NOL4L	2	0.915	100	0.873	88.9
NOL4L	3	-0.81	65.8	0.664	61.7
HBP1	1	0.593	93.7	0.701	87
HBP1	2	0.112	84.1	0.507	82.2
HBP1	3	0.0676	83.2	0.0808	91
CLCN4	1	-0.183	78.2	-0.688	105
CLCN4	2	2.02	122	1.54	91
CLCN4	3	0.394	89.7	-0.0122	101
